Results: patent publication US10246420B2, “Pyrazole derivatives” (BAYER CROPSCIENCE AKTIENGESELLSCHAFT, priority 2014, dated 2019)
Some results were stated once for a whole list of compounds, not compound by compound.

Assays:
[1] = test system: Sphaerotheca fuliginea; assay: Biological Example 3: in vivo preventive test on Sphaerotheca fuliginea (powdery mildew on cucurbits); conditions: 500 ppm of active ingredient; gherkin; evaluated 15 days after inoculation
[2] = test system: Venturia inaequalis; assay: Biological Example 5: in vivo preventive test on Venturia inaequalis (apples); conditions: 250 ppm of active ingredient, evaluated 10 days after inoculation
[3] = test system: Puccinia recondita; assay: Biological Example 1: in vivo preventive test on Puccinia recondita (brown rust on wheat); conditions: 500 ppm of active ingredient, evaluated 11 days after inoculation
[4] = test system: Septoria tritici; assay: Biological Example 2: in vivo preventive test on Septoria tritici (leaf spot on wheat); conditions: 500 ppm of active ingredient, evaluated 24 days after inoculation
[5] = test system: Uromyces appendiculatus; assay: Biological Example 4: in vivo preventive test on Uromyces appendiculatus (bean rust); conditions: 500 ppm of active ingredient, evaluated 11 days after inoculation

Measured: efficacy

C#CCOc1cc(F)cc(F)c1Nc1c(-c2ccc(F)cc2Cl)c(C)nn1C [Example I-01]
at least 70%: all assays above

C=CCOc1cc(F)c(Nc2c(-c3ccc(F)cc3Cl)c(C)nn2C)c(F)c1 [Example I-02]
at least 70%: all assays above

C=CCOc1cc(F)c(N(C)c2c(-c3ccc(F)cc3Cl)c(C)nn2C)c(F)c1 [Example I-04]
at least 70%: [3] | [4]

C#CCOc1cc(F)c(Nc2c(-c3ccc(F)cc3Cl)c(C)nn2C)c(F)c1 [Example I-03]
at least 70%: all assays above
